This assay addresses ErbB3 as used in the surface plasmon resonance (Flexchip) and KinExA assays (human) (UniProt P21860). In words: surface plasmon resonance (Flexchip).

The chains behind the UniProt entries cited, without tags or fusion partners. Residues count along the entry.
UniProt P21860, residues 20-643: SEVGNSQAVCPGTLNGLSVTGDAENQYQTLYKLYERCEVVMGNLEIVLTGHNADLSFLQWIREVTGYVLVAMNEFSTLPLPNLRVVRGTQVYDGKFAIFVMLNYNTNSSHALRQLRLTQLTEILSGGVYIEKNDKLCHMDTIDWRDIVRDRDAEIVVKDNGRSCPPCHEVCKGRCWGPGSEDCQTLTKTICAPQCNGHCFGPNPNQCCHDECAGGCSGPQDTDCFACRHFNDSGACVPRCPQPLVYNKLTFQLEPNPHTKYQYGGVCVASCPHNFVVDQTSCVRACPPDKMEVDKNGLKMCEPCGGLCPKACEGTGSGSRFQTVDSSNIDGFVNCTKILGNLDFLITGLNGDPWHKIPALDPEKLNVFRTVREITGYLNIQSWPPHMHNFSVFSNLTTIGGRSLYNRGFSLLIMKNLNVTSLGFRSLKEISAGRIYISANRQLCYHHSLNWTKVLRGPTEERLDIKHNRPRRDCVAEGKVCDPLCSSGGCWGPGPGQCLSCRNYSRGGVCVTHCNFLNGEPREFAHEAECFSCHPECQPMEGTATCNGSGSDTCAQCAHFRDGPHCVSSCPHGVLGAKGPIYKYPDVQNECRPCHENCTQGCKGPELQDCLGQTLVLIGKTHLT

Results are given in words; binding and its absence hold for the method and conditions named. Some results given as binding are weak or reduced against the parent protein; the word gives no strength.

B1: Antibody #3 (Ab #3), human anti-ErbB3 antibody (antibody, V domains shown)
VH: EVQLLESGGGLVQPGGSLRLSCAASGFTFSAYNMRWVRQAPGKGLEWVSVIYPSGGATRYADSVKGRFTISRDNSKNTLYLQMNSLRAEDTAVYYCARGYYYYGMDVWGQGTLVTVSS
VL: QSVLTQPPSASGTPGQRVTISCSGSDSNIGRNYIYWYQQFPGTAPKLLIYRNNQRPSGVPDRISGSKSGTSASLAISGLRSEDEAEYHCGTWDDSLSGPVFGGGTKLTVL
For the molecule B1, the binding entry is “binds”.

(Values after patent publication US20110123523A1.)
